The list shows a part of the results. The main result of the screen is listed elsewhere. These columns were measured beside it and carry no call. Most of these compounds were active or inconclusive in the main read-out, so they are no random draw. Potencies come from curve fits of mixed quality, noted in brackets.

Drawing on PubChem BioAssay AID2685 (National Center for Advancing Translational Sciences (NCATS), 2010), this text covers cell number change and AC50 for 58 compounds.

A short description of the assay: qHTS Assay for Lipid Storage Modulators in Drosophila S3 Cells.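 On cell number change: cells counted by Cell Tracker Red CMTPX staining in the red channel.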 Conditions: BODIPY lipid droplet fluorescence, 18-24 h; for cell number change: measured here: cell count max response, cells fed with added oleic acid. In short, it runs like this:
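Laser-scanning cytometry quantifies lipid droplet accumulation (500–530 nm total intensity; droplet/cell object ratio) in oleic acid-fed (400 uM added) Drosophila S3 cells treated with a concentration series. 20 uM Triacsin C defined 100% inhibition.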
On the technique in general: In qHTS, concentration-response curves come from the screen itself.

Setting [1] is: measured here: cell number channel AC50, cells fed with added oleic acid.
Where [2] appears, read: measured here: lipid fluorescence (Fed channel) AC50, cells fed with added oleic acid.

By AC50 is commonly meant the concentration at which the activity in the assay is half-maximal. On to `Cc1occc1C(=O)N1CCN(S(=O)(=O)c2ccc(F)cc2)CC1`, for which the cell number change was -47.5%. In addition, under setting [1], the AC50 is 16.4 µM [falling, single point]. Further, under setting [2], the AC50 is 29.1 µM [falling, single point]. `CCc1ccc(NC(=O)C(C)Sc2nc(-c3ccco3)c(C#N)c(=O)[nH]2)cc1` (stereo not drawn): the cell number change stood at 46.7%. Under setting [2], the AC50 is 23.1 µM [rising, single point]. `CC(=O)N1CCN(c2ccccc2NC(=S)NC(=O)c2cc3ccccc3o2)CC1`: the cell number change is -32.2%. Under setting [1], the AC50 was 2.59 µM [falling, full curve, poor fit]. For the compound `COc1ccc(CNC(=O)C2=CC(c3ccc(C)cc3)=NS(=O)(=O)N2C)cc1`, the cell number change was 12.1%. In the case of `CCCCC(=O)NC(c1ccc(Cl)cc1Cl)c1ccc2cccnc2c1O` (stereo not drawn), the cell number change was -25.3%. Besides, under setting [2], the AC50 is 29.1 µM [rising, single point]. As for `CN(CC(=O)Nc1cccc2ccccc12)c1ccc(S(=O)(=O)N2CCOCC2)cn1`, the cell number change turned out to be 31.1%. Under setting [1], the AC50 is 29.1 µM [rising, single point]. Further, the AC50 under setting [2] was 29.1 µM [falling, single point].

As to `Cc1c(/C(O)=C2\C(=O)C(=O)N(CCCN(C)C)C2c2ccncc2)cnn1-c1ccccc1` (stereo not drawn), the cell number change was determined as 18.8%. As for `O=C(CCNC(=O)c1ccccc1Cl)NCCc1ccc(C(F)(F)F)cc1`, the cell number change was 15.8%. Besides, the AC50 under setting [1] was 6.51 µM [rising, single point]. Turning to `O=C(CCC1CCCN(C(=O)c2ccccc2Cl)C1)N1CCN(c2ccccn2)CC1` (stereo not drawn), the cell number change was -6.11%. Besides, the AC50 under setting [2] is 6.51 µM [falling, partial curve, poor fit]. Turning to `N#Cc1c([N+](=O)[O-])cc([N+](=O)[O-])cc1S(=O)(=O)Cc1ccccc1`, the cell number change was -91.6%. Further, the AC50 under setting [1] is 4.11 µM [falling, full curve]. In addition, the AC50 under setting [2] was 6.51 µM [falling, single point].

On to `Fc1cccc(NC(=S)NCc2ccccn2)c1`, for which the cell number change is -24.8%. The AC50 under setting [1] was 6.51 µM [rising, partial curve, poor fit]. The AC50 under setting [2] is 6.51 µM [rising, single point].

Turning to `CCC1CCCCN1CCCNC(=O)c1cn(CC)c2ccc(S(=O)(=O)N(C)C3CCCCC3)cc2c1=O` (stereo not drawn), under setting [2], the AC50 is 0.731 µM [falling, single point]. For the compound `Cc1ccc(NC(=O)Cn2c(=O)n(Cc3ccco3)c(=N)c3c4c(sc32)COC(C)(C)C4)cc1`, the cell number change was determined as 11.8%. The concentration at half-maximal activity (AC50) under setting [2] is 2.59 µM [rising, partial curve]. As to `CN(C)C(=O)CSc1nnc(-c2ccc(S(=O)(=O)N3CCCC3)cc2)n1C`, the AC50 under setting [2] was 29.1 µM [rising, single point].

In the case of `Cc1ccccc1OCC(=O)NCC(=O)N/N=C/C=C/c1ccccc1`, the cell number change was 58.2%. Besides, the concentration at half-maximal activity (AC50) under setting [1] is 5.8 µM [rising, partial curve]. Further, the AC50 under setting [2] was 11.6 µM [rising, partial curve]. Turning to `CCCCCCCCCCC(=O)NNC(=O)c1c(O)c2ccccc2n(CC)c1=O`, the cell number change was -17.7%. For the same compound, the AC50 under setting [2] was 29.1 µM [falling, single point]. For the compound `CC(=O)C(C(C)=O)C1(O)C(=O)c2ccccc2C1=O`, the cell number change is -21.9%. The AC50 under setting [2] is 29.1 µM [falling, single point]. For the compound `Cc1onc(-c2ccccc2)c1C(=O)Nc1sc2c(c1C(N)=O)CCC2`, the cell number change is -8.68%. In addition, the AC50 under setting [2] was 25.9 µM [falling, single point]. For the compound `CCOc1cc(/C=N/NC(=O)c2cc(C)[nH]n2)ccc1OC(=O)c1ccc([N+](=O)[O-])cc1`, the cell number change was -14.3%. On to `CCOC(=O)c1csc(NC(=O)CN2CCCCC2)n1`, for which the cell number change is -7.7%. In addition, the AC50 under setting [2] is 0.146 µM [falling, full curve, poor fit]. For the compound `Cc1ccc(C)c(-n2c(SCC(=O)NCC3CCCO3)nnc2-c2ccoc2C)c1` (stereo not drawn), the cell number change amounted to 8.02%. Under setting [1], the AC50 is 7.31 µM [rising, partial curve, poor fit]. As for `COCCNC(=O)CSc1nc(N)c(NC(=O)c2ccccc2F)c(=O)[nH]1`, the cell number change is -1.49%. Besides, the AC50 under setting [2] was 8.2 µM [rising, partial curve, poor fit]. Regarding `COc1ccccc1NS(=O)(=O)c1ccc(N/N=C/C=C/c2ccccc2[N+](=O)[O-])c([N+](=O)[O-])c1`, the cell number change is -19.5%. The AC50 under setting [2] is 8.2 µM [falling, partial curve]. On to `Cc1ccc(S(=O)(=O)N2CCN(C(=O)COC(=O)CCOc3ccccc3)CC2)c(C)c1`, for which the cell number change is -45.2%. The AC50 under setting [1] was 18.4 µM [falling, single point]. Further, the AC50 under setting [2] was 18.4 µM [falling, single point]. With `COCCNC(=O)c1cc(Sc2nnc(C)s2)nc2ccccc12`, the AC50 under setting [1] is 0.82 µM [rising, single point]. For the compound `O=C(NCc1nc(-c2ccccc2)no1)Nc1ccc(F)cc1`, the cell number change is -13%. The AC50 under setting [2] was 0.13 µM [falling, partial curve, poor fit]. For `Cc1cc(NC(=O)c2cc(-c3cccnc3)nc3c(C)c(C)ccc23)no1`, the cell number change was -27.4%. As to `O=C1OCCC1Sc1nc2ccccc2c(=O)n1Cc1ccc(F)cc1` (stereo not drawn), the cell number change turned out to be 18.5%. With `COc1ccccc1Oc1ccc2c(c1)C(=O)N(CC1CCCO1)C2=O` (stereo not drawn), the cell number change is -35.1%. The AC50 under setting [1] was 20.6 µM [falling, single point]. Besides, the AC50 under setting [2] is 29.1 µM [falling, single point]. For `Cc1ccc(N(CC(=O)NCc2cccnc2)S(C)(=O)=O)cc1C`, the cell number change was -0.501%. Moreover, under setting [2], the AC50 is 13 µM [falling, partial curve]. Regarding `O=C(NC12CC3CC(CC(C3)C1)C2)C1CCCN1C(=O)Nc1ccccc1` (stereo not drawn), the cell number change amounted to 16.7%. Take `Cc1ccc(C(O)(C(=O)NNS(=O)(=O)c2ccc(C)cc2)c2ccc(C)cc2)cc1`: the cell number change is -21.8%. Besides, under setting [2], the AC50 is 0.58 µM [rising, partial curve, poor fit]. Regarding `COc1ccc2oc(C(=O)OCC(=O)N3CCCC(C)C3)c(C)c2c1` (stereo not drawn), the cell number change was found to be 1.04%. Still for that read-out and setting: to `C=CCn1c(=O)c(C(=O)NCCNCC)c(O)c2ccccc21` belongs -4.4%. With `O=C(CN1CCCCC1)Nc1ccc(F)c(Cl)c1`, the cell number change is -4.07%. Also, the AC50 under setting [2] was 3.66 µM [rising, single point]. For `Cc1cc(C(=O)Nc2nccs2)c2cc(F)ccc2n1`, the cell number change worked out at 46.5%. The AC50 under setting [1] is 2.06 µM [rising, partial curve]. The AC50 under setting [2] was 2.06 µM [rising, full curve].

`N=C1c2ccccc2CN1NC(=O)CC12CC3CC(CC(C3)C1)C2`: the cell number change amounted to 18.1%. As for `O=C(COC(=O)c1cccc(S(=O)(=O)N2CCCCCC2)c1)NCc1ccc(Cl)cc1`, the AC50 is 3.26 µM [falling, single point] under setting [1] and 6.51 µM [falling, single point] under setting [2]. Regarding `Cc1ccc(NC(=O)c2cccc(OCc3c(C)noc3C)c2)c(C)c1`, the AC50 is 0.0731 µM [rising, full curve, poor fit] under setting [1] and 4.11 µM [rising, single point] under setting [2]. Consider `COc1ccc(NC(=O)CC2C(=O)N(c3ccc(Cl)cc3)C(=S)N2CCc2ccncc2)cc1` (stereo not drawn), for which the cell number change is -12.8%. Besides, the AC50 under setting [2] was 0.231 µM [falling, full curve, poor fit].

`Cc1[nH]c2ccccc2c1/C=C/c1nc2ccccc2c(=O)n1CCO`: the cell number change was -34.2%. Also, under setting [1], the AC50 was 25.9 µM [falling, single point]. For the same compound, under setting [2], the AC50 was 25.9 µM [falling, single point]. Turning to `Cc1[nH]c2ccccc2c(=O)c1C(=O)/C=C/c1ccccc1`, the cell number change was -60.4%. The AC50 under setting [1] is 29.1 µM [falling, single point]. For the same compound, under setting [2], the AC50 is 29.1 µM [falling, single point]. For the compound `O=C1C2=C(SCCS2)C(=O)N1c1ccccc1`, the cell number change was -17%. Regarding `CC1CCN(C(C)C(=O)Nc2ccc(S(=O)(=O)N3CCCC3)cc2)CC1` (stereo not drawn), the cell number change is -12%. Further, the AC50 under setting [2] is 32.6 µM [falling, single point]. Regarding `O=[N+]([O-])c1ccc2nc(SCc3cn4cc(Cl)ccc4n3)[nH]c2c1`, the cell number change is -43.2%. For the same compound, the AC50 under setting [1] was 25.9 µM [falling, single point]. Also, the AC50 under setting [2] is 29.1 µM [falling, single point]. As for `CN(/N=C/c1ccc(-c2ccc([N+](=O)[O-])cc2)o1)c1ccccc1`, the cell number change is -80.8%. Besides, the AC50 under setting [1] was 11.6 µM [falling, partial curve]. In addition, the AC50 under setting [2] is 9.2 µM [falling, partial curve]. `Cc1c(C)c2cc(Cl)c(OC(C)C(=O)NCCN3CCOCC3)cc2oc1=O` (stereo not drawn): the cell number change was -13.3%. Besides, the AC50 under setting [2] was 13 µM [rising, partial curve, poor fit]. With `COc1ccc(C(c2nnnn2CCc2ccccc2)N2CCN(C)CC2)cc1OC` (stereo not drawn), the cell number change is -21.6%. For the same compound, the AC50 under setting [1] is 0.206 µM [falling, full curve, poor fit]. Turning to `CCCCOc1ccc(CN2CCC(O)CC2)cc1`, the cell number change is -37.6%. Also, the AC50 under setting [1] was 10.3 µM [falling, partial curve, poor fit].

As for `CN(C(=O)CSc1nnnn1-c1ccccc1)C1CCS(=O)(=O)C1` (stereo not drawn), the cell number change was -33.5%. Moreover, the AC50 under setting [1] was 29.1 µM [falling, single point].

Consider `Cc1ccc(S(=O)(=O)NNC(=O)C(=O)NNS(=O)(=O)c2ccc(C)cc2)cc1`, for which the cell number change was -17.3%. For the compound `COc1cc(C(=O)OCC(=O)N2CCC(C)CC2)cc2c1OCCO2`, the cell number change was 17.5%. The AC50 under setting [2] was 0.206 µM [rising, partial curve, poor fit]. As for `CC(=O)CSc1ncnc2scc(-c3ccc(F)cc3)c12`, the cell number change was 30%. Further, the AC50 under setting [1] is 0.146 µM [rising, full curve, poor fit]. The AC50 under setting [2] is 11.6 µM [rising, partial curve]. Consider `CC1CCN(c2cc(C#N)c(C#N)cc2[N+](=O)[O-])CC1`, for which the AC50 under setting [2] is 2.06 µM [falling, partial curve, poor fit]. For `Cc1nnc(NC(=O)COc2ccc3c(C)cc(=O)oc3c2)s1`, the cell number change stood at 20%. In addition, the AC50 under setting [2] was 29.1 µM [falling, single point]. Take `Cc1ccccc1C(=O)OCn1nnc2ccccc2c1=O`: the cell number change was 8.14%. For the same compound, the AC50 under setting [2] was 2.06 µM [rising, partial curve, poor fit].

For `C=CCn1c(SCC(=O)c2cc(C)n(CCOC)c2C)nc2sc(C)c(C)c2c1=O`, the cell number change is -14.6%. In the case of `Cc1cc(C)nc(NS(=O)(=O)c2ccc(NC(=S)NC(=O)C(C)(C)C)cc2)n1`, the cell number change is -53.6%. Also, under setting [1], the AC50 is 20.6 µM [falling, single point].
